Data from publication PMC11124926.
These are yes or no findings as the source states them, for the method shown. For some assays here: Binding seen in cells or lysates may run through a third protein. Some results given as binding are weak or reduced against the parent protein; the word gives no strength. For some assays here: Sequences can lack the tags named with a protein. Each block holds one binder with its values, some of them ahead of it.

How the values were obtained:
[1] = biological target: T1, Slender rice 1 (SLR1), bait of the yeast two-hybrid screening (rice) (UniProt Q7G7J6); assay: two-hybrid; yeast two-hybrid screening with SLR1 as a bait
T1 sequence: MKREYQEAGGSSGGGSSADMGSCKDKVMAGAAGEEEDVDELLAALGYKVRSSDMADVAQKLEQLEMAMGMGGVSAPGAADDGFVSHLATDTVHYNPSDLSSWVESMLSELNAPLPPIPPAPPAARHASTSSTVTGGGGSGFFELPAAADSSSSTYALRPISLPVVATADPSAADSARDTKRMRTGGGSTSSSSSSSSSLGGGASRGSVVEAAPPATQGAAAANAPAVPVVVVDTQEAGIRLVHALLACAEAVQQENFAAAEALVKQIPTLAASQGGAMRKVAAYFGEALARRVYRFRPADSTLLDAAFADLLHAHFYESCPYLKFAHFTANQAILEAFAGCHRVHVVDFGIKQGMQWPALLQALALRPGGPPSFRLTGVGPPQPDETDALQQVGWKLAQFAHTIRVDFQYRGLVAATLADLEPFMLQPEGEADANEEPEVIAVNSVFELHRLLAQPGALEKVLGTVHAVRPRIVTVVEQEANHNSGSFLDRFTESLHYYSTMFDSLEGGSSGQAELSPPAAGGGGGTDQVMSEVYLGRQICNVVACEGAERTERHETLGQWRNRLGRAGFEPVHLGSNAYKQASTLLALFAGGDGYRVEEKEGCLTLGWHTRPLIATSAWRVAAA

SLR1-Myc (rice) = biological target: T2, SLR1-Myc (rice) (UniProt Q7G7J6); assay: co-IP; CIPK31-GFP + SLR1-Myc coexpressed in Nicotiana benthamiana leaves; total protein immunoprecipitated with anti-Myc (agarose beads, 3 h); blots with anti-GFP and anti-Myc; extraction buffer 150 mM NaCl, 0.1% NP40
T2 sequence: T1 sequence

binding [1]: binds
B1: Calcineurin B-like-interacting protein kinase 31 (CIPK31), interactor found in the SLR1 yeast two-hybrid screening (protein, UniProt Q6X4A2 1-449)
chain: MYRAKRAALSPKVKRRVGKYELGRTIGEGTFAKVRFAKNTENDEPVAIKILDKEKVQKHRLVEQIRREICTMKLVKHPNVVRLFEVMGSKARIFIVLEYVTGGELFEIIATNGRLKEEEARKYFQQLINAVDYCHSRGVYHRDLKLENLLLDASGNLKVSDFGLSALTEQVKADGLLHTTCGTPNYVAPEVIEDRGYDGAAADIWSCGVILYVLLAGFLPFEDDNIIALYKKISEAQFTCPSWFSTGAKKLITRILDPNPTTRITISQILEDPWFKKGYKPPVFDEKYETSFDDVDAAFGDSEDRHVKEETEDQPTSMNAFELISLNQALNLDNLFEAKKEYKRETRFTSQCPPKEIITKIEEAAKPLGFDIQKKNYKMRMENLKAGRKGNLNVATEVFQVAPSLHVVELKKAKGDTLEFQKFYRTLSTQLKDVVWKCDGEVEGNGAAA

binding (SLR1-Myc (rice)): binds
B2: CIPK31-GFP (protein, UniProt Q6X4A2 1-449)
chain: B1 chain
